For this experiment, the target named is CD5 antigen (epitope competition experiment of Example 1) (UniProt P06127). Put plainly: flow cytometry sandwich: hFc antibody premixed with CD5 antigen, added to FHVH1 CAR-T cells, APC anti-human Fc. (In general: A flow cytometer gives signals particle by particle.)

Protein sequences, listed by entry. Tags and fused reporters are not part of them. Residues count along the entry.
UniProt P06127, residues 25-371: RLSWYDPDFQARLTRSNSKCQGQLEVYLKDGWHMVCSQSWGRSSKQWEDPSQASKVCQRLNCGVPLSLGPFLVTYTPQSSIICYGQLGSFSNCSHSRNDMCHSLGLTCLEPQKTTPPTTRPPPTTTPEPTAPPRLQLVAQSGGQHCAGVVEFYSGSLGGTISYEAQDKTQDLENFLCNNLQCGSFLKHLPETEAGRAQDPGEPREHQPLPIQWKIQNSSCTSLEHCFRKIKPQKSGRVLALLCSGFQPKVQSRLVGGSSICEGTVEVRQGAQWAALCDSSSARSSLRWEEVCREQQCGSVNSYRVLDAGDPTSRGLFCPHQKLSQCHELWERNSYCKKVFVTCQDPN

1 molecule from patent US20240050568A1 (NANJING IASO BIOTECHNOLOGY, published 2024) can be followed below.

Results are given in words; binding and its absence hold for the method and conditions named. Some binding calls cover weakened binding; strength is not graded here. Sequences can lack the tags named with a protein.

B1: FHVH3 antibody with human Fc tag (Fc fusion, not shown: a dimerising Fc or GST)
chain: QVQLVQSGAEVKKPGSSVKVSCKASGGTFSNYAISWVRQAPGQGLEWMGWISAYNGDTKYAQRLQGRVTMTTDTSTSTAYMELRNLRSDDTAVYYCARYESMSGQDIWGQGTLVTVSS
B1: the binding result was “binds”.
